According to PMC12155888 (Molecules, 2025):

Key:
[1] = general procedure: solution-phase peptide synthesis; EDCI/HOBt/DIPEA; PyBOP/DMAP for macrolactamization; details: for cyclisation yield: cyclisation step; for step yield: coupling step
[2] = solution-phase peptide synthesis; EDCI/HOBt/DIPEA; PyBOP/DMAP for macrolactamization; details: whole synthesis, total yield

| Substance | step yield [1] | further results |
| --- | --- | --- |
| Cyclo(Me-D-Leu-L-Leu-L-Leu-Me-D-Leu-L-Leu) |  | cyclisation yield ([1]; on linear precursor 10c): 48% yield |
| Cyclo(Me-L-Leu-L-Leu-D-Pro-Me-L-Leu-L-Leu) |  | cyclisation yield ([1]; on linear precursor 10h): 51% yield |
| N-Boc-Me-L-Leu-L-Leu-O-Me-D-Tyr-Me-L-Leu-L-Leu-OBn | 95% yield |  |
| N-Boc-Me-L-Leu-L-Leu-D-Cyclohexyl-Gly-Me-L-Leu-L-Leu-OBn | 91% yield |  |
| Cyclo(Me-L-Leu-L-Leu-4-Bro-D-Phe-Me-L-Leu-L-Leu) |  | cyclisation yield ([1]; on linear precursor 10r): 55% yield |
| Cyclo(Me-L-Leu-L-Leu-D-Val-Me-L-Leu-L-Leu) |  | cyclisation yield ([1]; on linear precursor 10u): 50% yield |
| N-Boc-Me-L-Leu-L-Leu-4-Me-D-Phe-Me-L-Leu-L-Leu-OBn | 88% yield |  |
| Cyclo(Me-D-Leu-L-Leu-D-Leu-Me-D-Leu-L-Leu) |  | cyclisation yield ([1]; on linear precursor 10d): 0.45% yield |
| N-Boc-Me-L-Leu-D-Leu-D-Leu-Me-L-Leu-D-Leu-OBn | 86% yield |  |
| galaxamide |  | cyclisation yield ([1]; on linear precursor 10a): 48% yield; isolated yield [2]: 9.7% |
| Cyclo(Me-L-Leu-L-Leu-O-Tyr-Me-L-Leu-L-Leu) |  | cyclisation yield ([1]; on linear precursor 10m): 52% yield |
| N-Boc-Me-L-Leu-D-Leu-L-Leu-Me-L-Leu-D-Leu-OBn | 84% yield |  |
| N-Boc-Me-D-Leu-D-Leu-D-Leu-Me-D-Leu-D-Leu-OBn | 84% yield |  |
| Cyclo(Me-L-Leu-D-Leu-D-Leu-Me-L-Leu-D-Leu) |  | cyclisation yield ([1]; on linear precursor 10f): 54% yield |
| N-Boc-Me-D-Leu-L-Leu-D-Leu-Me-D-Leu-L-Leu-OBn | 79% yield |  |
| N-Boc-Me-L-Leu-L-Leu-2-Me-D-Phe-Me-L-Leu-L-Leu-OBn | 88% yield |  |
| N-Boc-Me-L-Leu-L-Leu-D-Pro-Me-L-Leu-L-Leu-OBn | 88% yield |  |
| N-Boc-Me-L-Leu-L-Leu-3-Me-D-Phe-Me-L-Leu-L-Leu-OBn | 85% yield |  |
| N-Boc-Me-L-Leu-L-Leu-3-Chl-D-Phe-Me-L-Leu-L-Leu-OBn | 90% yield |  |
| linear pentapeptide 8 | 85% yield |  |
| N-Boc-Me-D-Leu-D-Leu-L-Leu-Me-D-Leu-D-Leu-OBn | 81% yield |  |
| N-Boc-Me-L-Leu-L-Leu-O-Me-D-Ser-Me-L-Leu-L-Leu-OBn | 86% yield |  |
| N-Boc-Me-L-Leu-L-Leu-D-Phenyl-Gly-Me-L-Leu-L-Leu-OBn | 87% yield |  |
| N-Boc-Me-L-Leu-L-Leu-D-Leu-Me-L-Leu-L-Leu-OBn | 87% yield |  |

| Substance | step yield [1] | further results |
| --- | --- | --- |
| Cyclo(Me-L-Leu-L-Leu-O-Me-D-Ser-Me-L-Leu-L-Leu) |  | cyclisation yield ([1]; on linear precursor 10l): 52% yield |
| N-Boc-Me-L-Leu-L-Leu-D-Val-Me-L-Leu-L-Leu-OBn | 86% yield |  |
| Cyclo(Me-D-Leu-D-Leu-L-Leu-Me-D-Leu-D-Leu) |  | cyclisation yield ([1]; on linear precursor 10g): 50% yield |
| N-Boc-Me-L-Leu-L-Leu-D-Met-Me-L-Leu-L-Leu-OBn | 96% yield |  |
| Cyclo(Me-L-Leu-L-Leu-D-Ala-Me-L-Leu-L-Leu) |  | cyclisation yield ([1]; on linear precursor 10k): 49% yield |
| N-Boc-Me-D-Leu-L-Leu-L-Leu-Me-D-Leu-L-Leu-OBn | 83% yield |  |
| Cyclo(Me-L-Leu-L-Leu-Gly-Me-L-Leu-L-Leu) |  | cyclisation yield ([1]; on linear precursor 10j): 51% yield |
| N-Boc-Me-L-Leu-L-Leu-D-Ala-Me-L-Leu-L-Leu-OBn | 85% yield |  |
| Cyclo(Me-L-Leu-L-Leu-2-Me-D-Phe-Me-L-Leu-L-Leu) |  | cyclisation yield ([1]; on linear precursor 10p): 53% yield |
| Cyclo(Me-L-Leu-L-Leu-D-Leu-Me-L-Leu-L-Leu) |  | cyclisation yield ([1]; on linear precursor 10b): 45% yield |
| Cyclo(Me-L-Leu-L-Leu-3-Flu-D-Phe-Me-L-Leu-L-Leu) |  | cyclisation yield ([1]; on linear precursor 10o): 53% yield |
| Cyclo(Me-L-Leu-L-Leu-D-phenyl-Gly-Me-L-Leu-L-Leu) |  | cyclisation yield ([1]; on linear precursor 10t): 51% yield |
| N-Boc-Me-L-Leu-L-Leu-D-Phe-Me-L-Leu-L-Leu-OBn | 86% yield |  |
| N-Boc-Me-L-Leu-L-Leu-3-Bro-D-Phe-Me-L-Leu-L-Leu-OBn | 94% yield |  |
| Cyclo(Me-L-Leu-D-Leu-L-Leu-Me-L-Leu-D-Leu) |  | cyclisation yield ([1]; on linear precursor 10e): 45% yield |
| Cyclo(Me-L-Leu-L-Leu-D-cyclohexyl-Gly-Me-L-Leu-L-Leu) |  | cyclisation yield ([1]; on linear precursor 10s): 51% yield |
| Cyclo(Me-L-Leu-L-Leu-D-Phe-Me-L-Leu-L-Leu) |  | cyclisation yield ([1]; on linear precursor 10i): 51% yield |
| N-Boc-Me-L-Leu-L-Leu-3-Flu-D-Phe-Me-L-Leu-L-Leu-OBn | 88% yield |  |
| Cyclo(Me-L-Leu-L-Leu-D-Met-Me-L-Leu-L-Leu) |  | cyclisation yield ([1]; on linear precursor 10v): 52% yield |
| Cyclo(Me-L-Leu-L-Leu-Methylester-D-Asp-Me-L-Leu-L-Leu) |  | cyclisation yield ([1]; on linear precursor 10n): 52% yield |
| N-Boc-Me-L-Leu-L-Leu-Gly-Me-L-Leu-L-Leu-OBn | 84% yield |  |
| Cyclo(Me-L-Leu-L-Leu-4-Chl-D-Phe-Me-L-Leu-L-Leu) |  | cyclisation yield ([1]; on linear precursor 10q): 55% yield |
| N-Boc-Me-L-Leu-L-Leu-Methylester-D-Asp-Me-L-Leu-L-Leu-OBn | 88% yield |  |
